Here are results for 6 molecules from paper PMC5457487, “Structural Basis for Mitotic Centrosome Assembly in Flies” (Cell, 2017).

Substitutions are numbered along the chain they refer to. In names and notes the source's numbering stands. These are yes or no findings as the source states them, for the method shown. For part of these data: Tags and fused reporters may be left off the sequences shown.

T1: CM2-T1133E (Drosophila melanogaster) (UniProt P54623)
T1 sequence: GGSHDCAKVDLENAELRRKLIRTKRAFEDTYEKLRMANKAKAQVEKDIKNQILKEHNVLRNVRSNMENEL

T2: CM2-I1126E (Drosophila melanogaster) (UniProt P54623)
T2 sequence: T1 sequence with I48E, E55T

T3: CM2-L1137E (Drosophila melanogaster) (UniProt P54623)
T3 sequence: T1 sequence with E55T, L59E

B1: CM2-HCAA (domain or fragment, UniProt P54623-2 1082-1148)
chain: T1 sequence with H4A, C6A, E55T
B2: Cnn CM2 WT (GGS-H1082-L1148) (domain or fragment, Drosophila melanogaster)
chain: T1 sequence with E55T
notes: GGS motif left at the N terminus after TEV cleavage; Centrosomin (Cnn), Drosophila, CM2 domain, aa1082-1148; The dimer holds a Zn2+ ion coordinated by H1082 and C1084; also called Cnn-motif 2 domain; Cnn_(1082-1148); source: E. coli C41 (DE3), purified (Ni-NTA, TEV cleavage, SEC); not shown: His-tagged lipoyl domain (Bacillus stearothermophilus dihydrolipoamide acetyltransferase), N-terminal, …
B3: MBP-PReM (domain or fragment, Drosophila melanogaster, UniProt P54623-2 403-608, looked up)
chain: QLQTEVKKKTANLQNLVNKELWEKNREVERLTKLLANQQKTLPQISEESAGEADLQQSFTEAEYMRALERNKLLQRKVDVLFQRLADDQQNSAVIGQLRLELQQARTEVETADKWRLECVDVCSVLTNRLEELAGFLNSLLKHKDVLGVLAADRRNAMRKAVDRSLDLSKSLNMTLNITATSLADQSLAQLCNLSEILYTEGDASH
notes: Centrosomin (Cnn), Drosophila, phospho-regulated multimerization (PReM) domain, aa403-608; also called MBP-PReM fusion; Cnn-PReM (aa403-608); source: E. coli B834 (DE3), purified (Ni-NTA, SEC); not shown: MBP, N-terminal, kept
B4: PReM-GFP (domain or fragment, UniProt P54623-2 403-608)
chain: MQLQTEVKKKTANLQNLVNKELWEKNREVERLTKLLANQQKTLPQISEESAGEADLQQSFTEAEYMRALERNKLLQRKVDVLFQRLADDQQNSAVIGQLRLELQQARTEVETADKWRLECVDVCSVLTNRLEELAGFLNSLLKHKDVLGVLAADRRNAMRKAVDRSLDLSKSLNMTLNITATSLADQSLAQLCNLSEILYTEGDASH
B5: Cnn LZ WT (GPM-D490-K544) (domain or fragment, Drosophila melanogaster)
chain: GPMDQQNSAVIGQLRLELQQARTEVETADKWRLECVDVCSVLTNRLEELAGFLNSLLK
notes: Centrosomin (Cnn), Drosophila, LZ domain, aa490-544; Homo-tetramer alone in solution; a parallel homo-dimer in the 2:2 complex with CM2; also called LZ domain; leucine zipper; source: E. coli B834 (DE3), purified (Ni-NTA, SEC; tag cleaved with GST-3C protease, reverse Ni-NTA, SEC); not shown: His6, N-terminal, cleaved; MBP, N-terminal, cleaved
B6: LZ-L528E (domain or fragment, UniProt P54623-2 490-544)
chain: B5 chain with L42E

For test [1], the target named is CM2-HCAA (Drosophila melanogaster) (UniProt P54623). The experiment in a line: SEC-MALS; S75 10/300 column; 50 mM Tris-HCl pH7.5, 150 mM NaCl, 10 μM ZnCl2, 5 mM β-mercaptoethanol; proteins alone or mixed; both purified. (In general: SEC sorts molecules by how far they enter the pores of the column.)
Test [2] has as its target B2. Kind of test: SEC-MALS; WT CM2 in buffer with EDTA; both purified.
The target of test [3] is T1, CM2-T1133E (Drosophila melanogaster). Kind of test: SEC-MALS; Superose 6 column; MBP-PReM apo or with addition of CM2 WT or point mutants; 50 mM Tris-HCl pH7.5, 150 mM NaCl, 10 μM ZnCl2, 5 mM β-mercaptoethanol; both purified.
Test [4] concerns the target T2, CM2-I1126E (Drosophila melanogaster). Described as above.
Test [5] addresses T3, CM2-L1137E (Drosophila melanogaster). Described as above.
Test [6] concerns the target T1, CM2-T1133E (Drosophila melanogaster). The experiment in a line: fluorescence microscopy of assemblies of purified proteins; PReM-GFP mixed with CM2 or its mutants at equimolar 20 μM; 50 mM Tris-HCl pH7.5, 150 mM NaCl, 5 mM β-mercaptoethanol, room temperature; both purified.
In test [7] the target is T2, CM2-I1126E (Drosophila melanogaster). The test is described as above.
Test [8] concerns the target T3, CM2-L1137E (Drosophila melanogaster). The description is as above.
For test [9], the target named is T1, CM2-T1133E (Drosophila melanogaster). Kind of test: SEC-MALS; S75 10/300 column; 50 mM Tris-HCl pH7.5, 150 mM NaCl, 10 μM ZnCl2, 5 mM β-mercaptoethanol; proteins alone or mixed; both purified.
Test [10] addresses T2, CM2-I1126E (Drosophila melanogaster). The description is as above.
Test [11] deals with T3, CM2-L1137E (Drosophila melanogaster). The description is as above.
For test [12], the target named is B2. The test is described as above.

B1: in [1], the binding result was “no binding”.
Regarding B2, in test [2], the binding entry is given as “no binding (condition: with EDTA)”.
For B3, the binding result in test [3], in test [4] and in [5] was “no binding” in each case.
Regarding B4, the binding result in [6], in [7] and in test [8] was “no binding (tested: 20 μM)” in each case.
As to B5, the binding result in test [9], in [10] and in [11] was “no binding” each time.
In the case of B6, in test [12], the binding result is “no binding”.
